The results in this text go back to the supplement of paper PMC12067093, “Discovery and optimisation of a covalent ligand for TRIM25 and its application to targeted protein ubiquitination” (Chemical Science, 2025).

Amino acid sequences for entries named in this document (tags omitted). A change or cut given only in a name is not applied to a line headed by its entry.
UniProt Q96NL6: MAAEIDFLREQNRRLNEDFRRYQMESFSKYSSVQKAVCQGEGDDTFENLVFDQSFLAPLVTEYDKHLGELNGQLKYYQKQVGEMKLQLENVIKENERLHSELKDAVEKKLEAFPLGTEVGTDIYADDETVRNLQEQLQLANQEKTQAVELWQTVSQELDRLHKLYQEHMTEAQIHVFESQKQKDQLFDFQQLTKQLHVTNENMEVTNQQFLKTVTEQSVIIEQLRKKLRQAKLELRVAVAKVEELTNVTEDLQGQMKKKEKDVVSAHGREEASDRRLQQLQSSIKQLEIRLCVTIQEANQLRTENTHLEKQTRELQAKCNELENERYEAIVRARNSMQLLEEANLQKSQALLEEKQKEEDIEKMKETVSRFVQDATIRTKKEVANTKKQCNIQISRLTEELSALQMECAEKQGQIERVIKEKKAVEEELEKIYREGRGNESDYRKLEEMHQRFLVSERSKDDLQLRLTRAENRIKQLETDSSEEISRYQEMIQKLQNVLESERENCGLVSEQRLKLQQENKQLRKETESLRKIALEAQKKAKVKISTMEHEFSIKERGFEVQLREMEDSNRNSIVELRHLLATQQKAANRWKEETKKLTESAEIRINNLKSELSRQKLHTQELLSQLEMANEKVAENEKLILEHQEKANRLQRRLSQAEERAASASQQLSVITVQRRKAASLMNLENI
UniProt Q9Y6B6: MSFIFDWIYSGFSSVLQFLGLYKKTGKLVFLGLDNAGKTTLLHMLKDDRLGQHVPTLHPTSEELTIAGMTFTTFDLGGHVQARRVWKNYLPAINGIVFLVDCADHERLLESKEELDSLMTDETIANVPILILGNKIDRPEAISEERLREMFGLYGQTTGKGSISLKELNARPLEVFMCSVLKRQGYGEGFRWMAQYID
UniProt P31040: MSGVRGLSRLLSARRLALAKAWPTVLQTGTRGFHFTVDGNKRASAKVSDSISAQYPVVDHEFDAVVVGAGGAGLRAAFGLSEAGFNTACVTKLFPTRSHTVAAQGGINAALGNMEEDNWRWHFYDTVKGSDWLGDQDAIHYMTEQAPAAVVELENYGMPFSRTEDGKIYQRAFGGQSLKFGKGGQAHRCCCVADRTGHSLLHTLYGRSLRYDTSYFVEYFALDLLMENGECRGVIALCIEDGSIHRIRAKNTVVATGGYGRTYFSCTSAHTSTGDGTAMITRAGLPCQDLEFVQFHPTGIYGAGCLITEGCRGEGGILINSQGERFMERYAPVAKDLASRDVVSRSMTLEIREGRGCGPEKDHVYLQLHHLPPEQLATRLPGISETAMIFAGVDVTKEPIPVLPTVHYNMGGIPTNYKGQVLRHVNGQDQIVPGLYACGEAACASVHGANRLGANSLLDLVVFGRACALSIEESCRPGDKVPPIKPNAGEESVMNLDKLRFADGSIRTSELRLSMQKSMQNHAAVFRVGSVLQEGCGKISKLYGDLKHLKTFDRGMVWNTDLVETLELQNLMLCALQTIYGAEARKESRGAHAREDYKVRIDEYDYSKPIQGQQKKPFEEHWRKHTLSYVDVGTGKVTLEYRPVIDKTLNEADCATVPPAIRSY
UniProt Q15019: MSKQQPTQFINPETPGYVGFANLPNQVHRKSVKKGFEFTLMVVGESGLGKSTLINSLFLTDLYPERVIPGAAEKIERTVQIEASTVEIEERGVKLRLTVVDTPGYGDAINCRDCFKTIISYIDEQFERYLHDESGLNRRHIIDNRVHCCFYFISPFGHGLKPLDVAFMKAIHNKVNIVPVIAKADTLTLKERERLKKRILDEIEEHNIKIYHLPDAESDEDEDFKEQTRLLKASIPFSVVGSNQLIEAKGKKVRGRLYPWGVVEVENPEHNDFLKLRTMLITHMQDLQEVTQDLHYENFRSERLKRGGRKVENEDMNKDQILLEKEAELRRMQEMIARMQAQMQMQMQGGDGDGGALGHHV
UniProt O95487: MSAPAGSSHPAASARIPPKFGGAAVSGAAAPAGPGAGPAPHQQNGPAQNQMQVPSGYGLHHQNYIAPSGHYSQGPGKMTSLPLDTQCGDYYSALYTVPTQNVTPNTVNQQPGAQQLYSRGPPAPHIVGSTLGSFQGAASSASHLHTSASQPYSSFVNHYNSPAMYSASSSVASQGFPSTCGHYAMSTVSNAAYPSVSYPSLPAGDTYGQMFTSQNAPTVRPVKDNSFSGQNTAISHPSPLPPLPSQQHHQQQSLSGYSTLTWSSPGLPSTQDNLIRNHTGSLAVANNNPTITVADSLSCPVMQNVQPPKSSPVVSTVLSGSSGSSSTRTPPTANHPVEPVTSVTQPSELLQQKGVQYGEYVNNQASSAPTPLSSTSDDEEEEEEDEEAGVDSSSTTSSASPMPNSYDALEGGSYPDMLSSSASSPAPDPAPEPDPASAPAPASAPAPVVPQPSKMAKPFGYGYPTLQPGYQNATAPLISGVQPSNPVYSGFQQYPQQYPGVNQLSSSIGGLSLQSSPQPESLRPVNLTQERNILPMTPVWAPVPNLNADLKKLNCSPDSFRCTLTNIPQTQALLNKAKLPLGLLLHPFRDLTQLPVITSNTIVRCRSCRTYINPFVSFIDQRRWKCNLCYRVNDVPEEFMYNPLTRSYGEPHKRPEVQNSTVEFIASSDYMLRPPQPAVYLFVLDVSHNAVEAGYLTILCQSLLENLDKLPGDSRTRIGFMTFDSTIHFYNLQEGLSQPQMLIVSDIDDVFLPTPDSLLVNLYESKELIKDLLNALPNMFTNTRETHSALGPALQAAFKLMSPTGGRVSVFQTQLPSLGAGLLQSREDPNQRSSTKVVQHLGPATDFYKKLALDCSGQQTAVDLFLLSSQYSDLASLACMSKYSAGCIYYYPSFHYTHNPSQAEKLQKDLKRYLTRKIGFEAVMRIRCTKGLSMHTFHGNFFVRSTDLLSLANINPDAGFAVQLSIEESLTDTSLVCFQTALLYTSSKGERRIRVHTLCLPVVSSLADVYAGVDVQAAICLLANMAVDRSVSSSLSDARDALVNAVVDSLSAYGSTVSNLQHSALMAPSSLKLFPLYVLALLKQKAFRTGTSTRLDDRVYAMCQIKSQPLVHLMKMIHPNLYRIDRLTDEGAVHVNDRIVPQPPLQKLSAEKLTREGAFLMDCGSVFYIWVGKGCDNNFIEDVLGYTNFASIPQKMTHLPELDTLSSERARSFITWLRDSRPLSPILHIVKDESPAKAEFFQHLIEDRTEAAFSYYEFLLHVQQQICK
UniProt O94855: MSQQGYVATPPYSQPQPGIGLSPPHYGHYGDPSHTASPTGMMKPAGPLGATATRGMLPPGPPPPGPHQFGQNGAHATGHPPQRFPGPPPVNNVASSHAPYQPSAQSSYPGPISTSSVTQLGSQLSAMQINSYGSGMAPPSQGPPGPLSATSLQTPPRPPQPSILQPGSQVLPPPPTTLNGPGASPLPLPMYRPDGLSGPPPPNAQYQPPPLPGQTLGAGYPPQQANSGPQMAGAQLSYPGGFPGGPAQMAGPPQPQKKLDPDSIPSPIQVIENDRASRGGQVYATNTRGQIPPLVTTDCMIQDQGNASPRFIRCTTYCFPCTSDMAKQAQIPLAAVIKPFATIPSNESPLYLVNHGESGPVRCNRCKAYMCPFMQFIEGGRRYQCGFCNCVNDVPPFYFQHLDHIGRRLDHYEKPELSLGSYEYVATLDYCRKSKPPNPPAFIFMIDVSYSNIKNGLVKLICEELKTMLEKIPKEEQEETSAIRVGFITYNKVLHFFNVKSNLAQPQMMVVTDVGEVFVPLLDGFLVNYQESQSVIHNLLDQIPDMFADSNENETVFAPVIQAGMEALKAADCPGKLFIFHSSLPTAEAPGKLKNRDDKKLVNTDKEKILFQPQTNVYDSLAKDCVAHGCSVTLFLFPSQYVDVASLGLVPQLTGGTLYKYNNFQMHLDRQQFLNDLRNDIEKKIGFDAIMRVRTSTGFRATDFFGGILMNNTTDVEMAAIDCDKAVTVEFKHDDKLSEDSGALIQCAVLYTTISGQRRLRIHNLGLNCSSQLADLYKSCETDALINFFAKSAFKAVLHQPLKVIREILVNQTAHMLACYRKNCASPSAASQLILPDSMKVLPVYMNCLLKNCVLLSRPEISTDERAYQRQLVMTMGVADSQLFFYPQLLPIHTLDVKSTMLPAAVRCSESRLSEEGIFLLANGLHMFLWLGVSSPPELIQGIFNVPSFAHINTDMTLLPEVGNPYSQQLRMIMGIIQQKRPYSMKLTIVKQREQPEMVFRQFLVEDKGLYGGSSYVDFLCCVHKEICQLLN
UniProt Q8NBX0: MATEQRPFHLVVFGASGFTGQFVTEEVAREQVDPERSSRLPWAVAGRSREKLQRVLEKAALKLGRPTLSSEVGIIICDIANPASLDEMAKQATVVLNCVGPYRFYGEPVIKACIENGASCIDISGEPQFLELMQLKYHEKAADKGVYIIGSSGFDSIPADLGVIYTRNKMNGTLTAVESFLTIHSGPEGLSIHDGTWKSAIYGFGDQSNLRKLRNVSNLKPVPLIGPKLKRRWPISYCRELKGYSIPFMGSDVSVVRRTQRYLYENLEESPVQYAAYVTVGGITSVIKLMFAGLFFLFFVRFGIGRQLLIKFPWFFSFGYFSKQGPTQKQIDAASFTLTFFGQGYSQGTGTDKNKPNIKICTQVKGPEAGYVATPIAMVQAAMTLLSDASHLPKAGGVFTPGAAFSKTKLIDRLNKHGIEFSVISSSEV
UniProt Q9UPW6: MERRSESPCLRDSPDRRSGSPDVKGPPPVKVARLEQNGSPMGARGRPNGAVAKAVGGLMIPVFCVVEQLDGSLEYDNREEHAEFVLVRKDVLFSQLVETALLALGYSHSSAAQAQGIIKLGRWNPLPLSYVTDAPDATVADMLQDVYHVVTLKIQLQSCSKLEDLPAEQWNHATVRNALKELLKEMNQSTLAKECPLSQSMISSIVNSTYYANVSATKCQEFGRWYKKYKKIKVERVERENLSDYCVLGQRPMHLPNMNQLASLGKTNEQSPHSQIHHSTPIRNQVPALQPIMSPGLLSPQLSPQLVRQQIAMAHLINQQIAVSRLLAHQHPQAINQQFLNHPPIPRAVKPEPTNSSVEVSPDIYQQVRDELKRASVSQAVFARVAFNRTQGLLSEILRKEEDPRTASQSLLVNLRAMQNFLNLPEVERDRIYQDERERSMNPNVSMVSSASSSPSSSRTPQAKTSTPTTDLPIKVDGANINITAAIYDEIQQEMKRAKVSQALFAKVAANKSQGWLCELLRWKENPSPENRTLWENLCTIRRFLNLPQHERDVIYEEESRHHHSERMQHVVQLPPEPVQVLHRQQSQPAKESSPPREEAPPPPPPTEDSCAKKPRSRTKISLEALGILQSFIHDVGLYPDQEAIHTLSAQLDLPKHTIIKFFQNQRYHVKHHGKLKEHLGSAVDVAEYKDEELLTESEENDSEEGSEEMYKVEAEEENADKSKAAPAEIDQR
UniProt Q15437: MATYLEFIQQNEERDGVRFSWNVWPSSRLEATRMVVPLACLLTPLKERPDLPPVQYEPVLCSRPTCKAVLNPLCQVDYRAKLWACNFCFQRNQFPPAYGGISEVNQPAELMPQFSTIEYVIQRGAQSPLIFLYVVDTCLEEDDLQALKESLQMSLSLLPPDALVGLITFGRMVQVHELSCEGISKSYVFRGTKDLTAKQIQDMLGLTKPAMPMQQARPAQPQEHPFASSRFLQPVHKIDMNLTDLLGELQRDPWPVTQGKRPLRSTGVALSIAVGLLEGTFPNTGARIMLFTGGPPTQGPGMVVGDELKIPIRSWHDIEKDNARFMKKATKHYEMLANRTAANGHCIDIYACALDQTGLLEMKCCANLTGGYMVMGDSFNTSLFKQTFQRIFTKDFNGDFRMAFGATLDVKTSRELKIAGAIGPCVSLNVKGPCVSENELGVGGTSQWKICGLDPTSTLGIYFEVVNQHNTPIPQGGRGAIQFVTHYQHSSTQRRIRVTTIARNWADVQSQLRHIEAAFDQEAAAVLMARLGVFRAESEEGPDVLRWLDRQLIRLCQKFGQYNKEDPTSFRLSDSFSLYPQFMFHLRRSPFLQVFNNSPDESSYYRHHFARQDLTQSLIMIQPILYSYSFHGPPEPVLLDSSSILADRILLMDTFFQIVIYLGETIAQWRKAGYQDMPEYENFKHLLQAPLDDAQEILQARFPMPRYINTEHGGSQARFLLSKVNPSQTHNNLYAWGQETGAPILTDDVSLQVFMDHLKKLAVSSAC
UniProt Q96EE3: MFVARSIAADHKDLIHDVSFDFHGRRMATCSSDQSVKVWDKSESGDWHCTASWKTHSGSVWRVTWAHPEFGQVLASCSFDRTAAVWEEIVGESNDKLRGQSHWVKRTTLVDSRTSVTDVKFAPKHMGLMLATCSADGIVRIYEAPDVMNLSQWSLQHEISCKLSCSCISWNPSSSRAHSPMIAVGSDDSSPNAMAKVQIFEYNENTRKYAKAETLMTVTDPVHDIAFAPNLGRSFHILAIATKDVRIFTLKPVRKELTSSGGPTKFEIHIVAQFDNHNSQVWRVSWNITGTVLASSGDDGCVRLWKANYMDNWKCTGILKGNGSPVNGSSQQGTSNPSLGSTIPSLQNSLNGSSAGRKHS

This is one part of the list.

Compound in this assay: Cc1cc(ccc1-c1ccccc1)C(=O)N1CCCN(CC1)C(=O)CCl [compound 10]
Nature of the assay: probe-labelled cysteine peptide fold change vs DMSO (competition) (log2 fold change); higher = less target engagement (more negative = stronger competition). The conditions noted are these: THP-1, incubation time: 4 h.
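Note: competitive profiling in live THP-1 cells: cysteine peptides tagged with an iodoacetamide desthiobiotin (IA-DTB) probe, intensity after compound treatment relative to DMSO-treated cells.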

Regarding “SCLT1_Q96NL6_319_CNELENERYEAIVR (UniProt Q96NL6)”, the “probe-labelled cysteine peptide fold change” value runs as follows: (10 µM) 0.115; (50 µM) 0.253.
For “SART1_O43290_645_GLAAALLLCQNK (UniProt O43290)”, in that order: -0.175 and -0.114.
On the same counts, the results for “SEL1L_Q9UBV2_127_KPALTAIEGTAHGEPCHFPFLFLDK (UniProt Q9UBV2)” are -0.085 and 0.301.
For “SAR1B_Q9Y6B6_102_NYLPAINGIVFLVDCADHER (UniProt Q9Y6B6)”, the “probe-labelled cysteine peptide fold change” value (10 µM) was determined as 0.248 and the “probe-labelled cysteine peptide fold change” value (50 µM) was determined as 0.291.
For “SAP30_O75446_184_AQLVEIVGCHFR (UniProt O75446)”, in that order: 0.0105 and -0.181.
For “SDHA_P31040_443_HVNGQDQIVPGLYACGEAACASVHGANR (UniProt P31040)”, in that order: 0.059 and -0.195.
On the same counts, the results for “SAPCD2_Q86UD0_46_GCVHLR (UniProt Q86UD0)” are 0.167 and -0.125.
Turning to “SCRIB_Q14160_1612_PSPGAVGPEDVALCSSR (UniProt Q14160)”, the “probe-labelled cysteine peptide fold change” value reads like this: (10 µM) -0.419; (50 µM) -0.534.
On the same counts, the results for “SCAF11_Q99590_1020_HRNDCPNWITEK (UniProt Q99590)” are -0.138 and -0.262.
For “SEPT2_Q15019_148+149_VHCCFYFISPFGHGLKPLDVAFMK (UniProt Q15019)”, in that order: -0.294 and -0.329.
On the same counts, the results for “SEC24B_O95487_1267_TEAAFSYYEFLLHVQQQICK (UniProt O95487)” are 0.232 and 0.457.
As for “SEC24D_O94855_848_VLPVYMNCLLK (UniProt O94855)”, the “probe-labelled cysteine peptide fold change” value (10 µM) is 0.139 and the “probe-labelled cysteine peptide fold change” value (50 µM) is 0.0936.
As to “SCCPDH_Q8NBX0_98_QATVVLNCVGPYR (UniProt Q8NBX0)”, the “probe-labelled cysteine peptide fold change” value (10 µM) came out at 0.294 and the “probe-labelled cysteine peptide fold change” value (50 µM) stood at 0.238.
In the case of “SATB2_Q9UPW6_539_TLWENLCTIR (UniProt Q9UPW6)”, the “probe-labelled cysteine peptide fold change” value reads like this: (10 µM) 0.0286; (50 µM) 0.307.
As to “SEPT3_Q9UH03_295_TPWGIIEVENLNHCEFALLR (UniProt Q9UH03)”, the “probe-labelled cysteine peptide fold change” value is -0.263 (10 µM) and 0.122 (50 µM).
For “SDF2_Q99470_137_NLHSHHFTSPLSGNQEVSAFGEEGEGDYLDDWTVLCNGPYWVR (UniProt Q99470)”, in that order: 0.365 and 0.0175.
For “SCCPDH_Q8NBX0_77_LGRPTLSSEVGIIICDIANPASLDEMAK (UniProt Q8NBX0)”, in that order: 0.218 and 0.131.
For “SEC23B_Q15437_61_ERPDLPPVQYEPVLCSR (UniProt Q15437)”, in that order: 0.0959 and 0.0833.
“SEH1L_Q96EE3_133_HMGLMLATCSADGIVR (UniProt Q96EE3)”: the “probe-labelled cysteine peptide fold change” value runs as follows: (10 µM) 0.255; (50 µM) 0.153.
On the same counts, the results for “SEC23IP_Q9Y6Y8_457_GIDDNLDEIPDGEMPQVDHLVFVVHGIGPVCDLR (UniProt Q9Y6Y8)” are -0.0121 and -0.00893.
For “SATB1_Q01826_78+91_GTMLPVFCVVEHYENAIEYDCKEEHAEFVLVR (UniProt Q01826)”, in that order: -0.0346 and -0.254.
On the same counts, the results for “SEC24D_O94855_780_SCETDALINFFAK (UniProt O94855)” are -0.0434 and 0.241.
With “SEC63_Q9UGP8_671_EQTLISMPYHVCTLK (UniProt Q9UGP8)”, the “probe-labelled cysteine peptide fold change” value is 0.235 (10 µM) and 0.336 (50 µM).
On the same counts, the results for “SEH1L_Q96EE3_161_IYEAPDVMNLSQWSLQHEISCK (UniProt Q96EE3)” are 0.0732 and -0.0756.
